Test results as given in the supplement of paper PMC12024529.
Counter-ions that a name gives are not always drawn. Some of the results follow. Part of the spread comes from offsets between plates or batches.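 HEK293 lines stably express B-domain-deleted factor VIII fused to Gaussia luciferase, wild type or a misfolding-prone missense mutant. Scores equal triplicate-well mean luminescence minus DMSO mean, divided by DMSO standard deviation; scores of 2 or higher are hits. Low scores may indicate reduced secretion or worse cell viability.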

system: HEK293 p.N1941S BDD-FVIII-Gluc; test: secreted FVIII-Gluc luciferase Z-score vs DMSO control; higher = more FVIII-Gluc secretion; conditions: 5 µM; 24 h

Secreted FVIII-Gluc luciferase Z-score, inactive:
CCCN[C@H]1CCc2nc(N)sc2C1 [Pramipexole dihydrochloride monohydrate] -2.01
COc1ccc2[nH]c([S+]([O-])Cc3ncc(C)c(OC)c3C)nc2c1 (configuration not stated) [Omeprazole (Prilosec)] -0.905
O=C1C(=O)c2ccccc2C(O)=C1C1CCC(c2ccc(Cl)cc2)CC1 (configuration not stated) [Atovaquone (Atavaquone)] 0.0699
CNC[C@H](O)c1cccc(O)c1 [Phenylephrine HCl] -1.8
COc1ccccc1Oc1c(NS(=O)(=O)c2ccc(C(C)(C)C)cc2)nc(-c2ncccn2)nc1OCCO [Bosentan] -0.331
CC[C@H]1OC(=O)[C@H](C)[C@@H](O[C@H]2C[C@@](C)(OC)[C@@H](O)[C@H](C)O2)[C@H](C)[C@@H](O[C@@H]2O[C@H](C)C[C@H](N(C)C)[C@H]2O)[C@](C)(O)C[C@@H](C)C(=O)[C@H](C)[C@@H](O)[C@]1(C)O [Erythromycin (E-Mycin)] -1.05
O=C1OC(CN2CCOCC2)CN1/N=C/c1ccc([N+](=O)[O-])o1 (configuration not stated) [Furaltadone HCl] 0.661
